According to article PMC12431657, “Discovery and mechanistic insights of dibenzoylmethane as a broad spectrum inhibitor of coronavirus” (PLOS Pathogens, 2025):
Counter-ions that a name gives are not always drawn. Like-named read-outs stand apart in the source and are kept apart here. Screen size: about 3,300 compounds; about 60 (2%) showed an effect of 50% or more. Some of the results follow. Peptide text beside a SMILES is read from it.

System: HCoV-OC43
Parameters: species or system RD; HTS, protection from HCoV-OC43 induced cell death, luminescent cell viability (CellCounting-Lite 2.0), inhibition rate
Settings: 24 h post infection, 1 h compound pre-incubation, 10 µM, inhibitor

Row | Compound | OC43 Inhibition rate [%] | OC43 Inhibition rate (OC43 Inhibition rate, 24 h) [%]
1 | CC(C)C[C@H](NC(=O)[C@H](C)N)C(=O)O [L-Alanyl-L-leucine] (H-Ala-Leu-OH) | -0.2 | –
2 | COc1c(O)c(=O)n2c3ccccc3c3ccnc1c32 [Nigakinone] | 6.4 | –
3 | C[C@@H]1CC[C@]2(C(=O)O[C@@H]3O[C@H](CO)[C@@H](O)[C@H](O)[C@H]3O)CC[C@]3(C)C(=CC[C@@H]4[C@@]5(C)C[C@@H](O)[C@H](O)C(C)(C)[C@@H]5CC[C@]43C)[C@@H]2[C@]1(C)O [Rosamultin] | 1 | –
4 | O=c1c(O[C@@H]2O[C@H](CO)[C@@H](O)[C@H](O)[C@H]2O[C@@H]2O[C@H](CO)[C@@H](O)[C@H](O)[C@H]2O)c(-c2ccc(O)c(O)c2)oc2cc(O)cc(O)c12 [Baimaside] | 0.7 | –
5 | COc1ccc(-c2oc3c(CC=C(C)C)c(O)cc(O)c3c(=O)c2O)cc1 [Icaritin] | 0.1 | –
6 | O=c1cc(-c2ccccc2)oc2ccc(O)cc12 [6-Hydroxyflavone] | 7.7 | –
7 | O=C(O)c1cc(O)cc(O)c1 [3,5-Dihydroxybenzoic acid] | -1.1 | –
8 | Oc1cc(O)c2c(c1)OC(c1ccc(O)c(O)c1)C(O)C2O (stereo not shown) [Leucocyanidin] | 0.2 | –
9 | NCCCCC(N)C(=O)O (racemic) [DL-Lysine] | -8.8 | –
10 | C[C@H]1CC[C@]2(NC1)O[C@H]1C[C@H]3[C@@H]4CC[C@H]5C[C@@H](O)CC[C@]5(C)[C@H]4CC[C@]3(C)[C@H]1[C@@H]2C [Tomatidine] | – | 4.3
11 | O=C[C@H](O)[C@@H](O)[C@H](O[C@H]1O[C@H](CO)[C@@H](O[C@H]2O[C@H](CO)[C@@H](O[C@H]3O[C@H](CO)[C@@H](O[C@H]4O[C@H](CO)[C@@H](O)[C@H](O)[C@H]4O)[C@H](O)[C@H]3O)[C@H](O)[C@H]2O)[C@H](O)[C@H]1O)[C@H](O)CO [Maltopentaose] | 2.8 | –
12 | COc1cc2c(c(O)c1OC)-c1c(cc(OC)c(OC)c1OC)C[C@@H](C)[C@@H](C)C2 [Schisanhenol] | 2 | –
13 | Oc1ccc(O)c(O)c1 [1,2,4-Trihydroxybenzene] | -0.2 | –
14 | CC(C)=C1CC[C@@H](C)CC1=O [Pulegone] | -1.4 | –
15 | Cc1cn([C@H]2C[C@H](O)[C@@H](CO)O2)c(=O)[nH]c1=O [Thymidine] | 0.1 | –
16 | C/C=C/C#CC#C[C@@H](O)[C@@H](/C=C/CCCO)O[C@@H]1O[C@H](CO)[C@@H](O)[C@H](O)[C@H]1O [Lobetyolin] | -0.8 | –
17 | CC[C@H](CC[C@@H](C)[C@H]1CC[C@H]2[C@@H]3CC[C@H]4C[C@@H](O)CC[C@]4(C)[C@H]3CC[C@]12C)C(C)C [Stigmastanol] | 8.9 | –
18 | COc1ccc(-c2oc3c(CCC(C)(C)O)c(O)cc(O)c3c(=O)c2O)cc1 [Wushanicaritin] | -0.1 | –
19 | C[C@@H]1O[C@@H](OC[C@H]2O[C@@H](Oc3c(-c4ccc(O)cc4)oc4cc(O)cc(O)c4c3=O)[C@H](O[C@@H]3O[C@@H](C)[C@H](O)[C@@H](O)[C@H]3O)[C@@H](O)[C@@H]2O)[C@H](O)[C@H](O)[C@H]1O [Clitorin] | -0.5 | –
20 | CC1CCCCC1=O (stereo not shown) [2-Methylcyclohexanone] | -0.1 | –
21 | CC(=O)O[C@]12CCC(C)=CC[C@]13CC[C@H]2[C@@](C)(/C=C/C=C(\C)C(=O)O)OC3=O [Pseudolaric Acid A] | 0.9 | –

Row | Compound | OC43 Inhibition rate [%] | OC43 Inhibition rate (OC43 Inhibition rate, 24 h) [%]
22 | NCCC(=O)N[C@@H](Cc1cnc[nH]1)C(=O)O [L-Carnosine] | -3.2 | –
23 | NC(=O)c1cccnc1 [Nicotinamide] | -0.3 | –
24 | CC(C)C[C@H](N)C(=O)O [L-Leucine] | -1.2 | –
25 | COc1cc2c3c(cc4ccccc4c3c1OC)N(C)CC2 [Dehydronuciferine] | -1.8 | –
26 | C[C@@H](O)[C@@H](C)O [2,3-Butanediol] | – | 1.3
27 | O=C(O)C[C@H](O)C(=O)O [(S)-Malic acid] | -1.2 | –
28 | C=C(NC(=O)C(=C)NC(=O)c1csc(C2=N[C@@H]3c4csc(n4)[C@H]4NC(=O)c5csc(n5)[C@H]([C@](C)(O)[C@@H](C)O)NC(=O)[C@H]5CSC(=N5)/C(=C/C)NC(=O)[C@H]([C@@H](C)O)NC(=O)c5csc(n5)[C@]3(CC2)NC(=O)[C@H](C)NC(=O)C(=C)NC(=O)[C@H](C)NC(=O)[C@H]([C@@H](C)CC)N[C@@H]2C=Cc3c([C@H](C)O)cc(nc3[C@H]2O)C(=O)O[C@@H]4C)n1)C(N)=O [Thiostrepton] | -1.1 | –
29 | CO[C@H]([C@H](C)[C@H]1O[C@@]2(CC[C@@](C)([C@H]3CC[C@@](C)([C@@H]4O[C@@H]([C@H]5O[C@@](O)(CO)[C@H](C)C[C@@H]5C)C[C@@H]4C)O3)O2)C[C@H](O)[C@H]1C)[C@H](C)C(=O)O [Monensin B] | 8.1 | –
30 | NC(=O)CC(N)C(=O)O (racemic) [DL-Asparagine] | 0.4 | –
31 | O=C(O)CCCCCCCCC(=O)O [Decanedioic acid] | 1.5 | –
32 | CCCCCCCC/C=C\CCCCCCCCCCCC(=O)O [Erucic acid] | 0.1 | –
33 | COC(=O)[C@@]12OC[C@]34[C@H]([C@@H](O)[C@@H]1O)[C@@]1(C)CC(=O)C(O)=C(C)[C@@H]1C[C@H]3OC(=O)[C@H](OC(=O)CC(C)C)[C@@H]24 [Bruceine A] | 11.8 | –
34 | CC1(C)C=Cc2c(ccc(C(=O)/C=C/c3ccc(O)cc3)c2O)O1 [4-Hydroxylonchocarpin] | – | 21.9
35 | COc1cc2c(cc1OC)[C@H]1[C@@H](C)c3ccc(OC)c(OC)c3CN1CC2 [Corydaline] | 0.6 | –
36 | CC(=O)NCCCC[C@H](N)C(=O)O [Nepsilon-Acetyl-L-lysine] | -0.2 | –
37 | COc1cc2ccc(=O)oc2c(O)c1OC [Fraxidin] | 0.1 | –
38 | CCCCCc1ccco1 [2-Pentylfuran] | 0.3 | –
39 | C[C@@H]1CC[C@@]2(OC1)O[C@H]1C[C@H]3[C@@H]4CC=C5C[C@@H](O[C@@H]6O[C@H](CO)[C@@H](O)[C@H](O[C@@H]7O[C@H](CO)[C@@H](O)[C@H](O)[C@H]7O)[C@H]6O[C@@H]6O[C@@H](C)[C@H](O)[C@@H](O)[C@H]6O)CC[C@]5(C)[C@H]4CC[C@]3(C)[C@H]1[C@@H]2C [Gracillin] | 7 | –
40 | CNCC(O)c1ccc(O)cc1 (stereo not shown) [Synephrine] | – | -0.3
41 | CO[C@H]1C(=O)[C@]2(C)[C@@H](OC)C[C@H]3OC[C@@]3(OC(C)=O)[C@H]2[C@H](OC(=O)c2ccccc2)[C@]2(O)C[C@H](OC(=O)[C@H](O)[C@@H](NC(=O)OC(C)(C)C)c3ccccc3)C(C)=C1C2(C)C [Cabazitaxel] | -5.4 | –
42 | C[C@]1(C(=O)O)CCC[C@]2(C)c3cc(O)ccc3CC[C@@H]12 [Podocarpic acid] | -0.2 | –

Some of these compounds in order of molar mass, rising.
Row | Compound | OC43 Inhibition rate [%] | OC43 Inhibition rate (OC43 Inhibition rate, 24 h) [%]
24 | CC(C)C[C@H](N)C(=O)O [L-Leucine] | -1.2 | –
37 | COc1cc2ccc(=O)oc2c(O)c1OC [Fraxidin] | 0.1 | –
25 | COc1cc2c3c(cc4ccccc4c3c1OC)N(C)CC2 [Dehydronuciferine] | -1.8 | –

(next part)

Row | Compound | OC43 Inhibition rate [%] | OC43 Inhibition rate (OC43 Inhibition rate, 24 h) [%]
43 | O=C1c2ccccc2C(=O)c2cc(CO)ccc21 [2-(Hydroxymethyl)anthraquinone] | 3.2 | –
44 | CC(C)=CCC/C(C)=C/COc1ccc2ccc(=O)oc2c1 [Auraptene] | 0 | –
45 | COc1cc(/C=C/C(=O)O[C@H]2[C@H](O)[C@@H](CO)O[C@@]2(CO)O[C@H]2O[C@H](CO)[C@@H](O)[C@H](O)[C@H]2O)cc(OC)c1OC [Glomeratose A] | -0.4 | –
46 | COc1c(OC)c2occc2c2oc(=O)ccc12 [Pimpinellin] | -1 | –
47 | COc1cc(CC(=O)O)ccc1O [Homovanillic acid] | 4.3 | –
48 | CC(=O)O[C@@]12CO[C@@H]1C[C@H](O)[C@@]1(C)C(=O)[C@H](O)C3=C(C)[C@@H](O)C[C@@](O)([C@@H](OC(=O)c4ccccc4)[C@H]21)C3(C)C [10-Deacetylbaccatin III] | 3.5 | –
49 | C[C@H]1[C@H](C)CC[C@]2(C)CC[C@]3(C)C(=CC(=O)[C@@H]4[C@@]5(C)CC[C@@H](O)[C@](C)(C(=O)O)[C@@H]5CC[C@]43C)[C@H]12 [11-Keto-beta-boswellic acid] | 0.1 | –
50 | OC1OC[C@@H](O)[C@H](O)[C@@H]1O (stereo partly drawn) [D-Lyxose] | -0.4 | –
51 | CCCCCCCCO [1-Octanol] | 2.3 | –
52 | O=C(O)/C=C/c1ccccc1O [2-Hydroxycinnamic acid] | 0.5 | –
53 | C[C@@H]1CC[C@@]2(OC1)O[C@H]1C[C@H]3[C@@H]4CC[C@H]5C[C@@H](O)[C@H](O)C[C@]5(C)[C@H]4CC[C@]3(C)[C@H]1[C@@H]2C [Gitogenin] | 0.1 | –
54 | COc1cc(C(=O)O)cc(O)c1O [3-O-Methylgallic acid] | 0.1 | –
55 | CSCCC(O)C(=O)O (stereo not shown) [Calcium 2-hydroxy-4-(methylthio)butanoate] | 1.2 | –
56 | CC(=O)NCCc1ccc(O)c(O)c1 [N-acetyldopamine] | -0.6 | –
57 | NCCCCCN [Pentane-1,5-diamine (dihydrochloride)] | -0.1 | –
58 | CC(=O)NCCCCCN [N-(5-Aminopentyl)acetamide] | -0.5 | –
59 | C[C@H]1CCCC(=O)CCCCCc2cc(O)cc(O)c2C(=O)O1 [Zearalanone] | 38.7 | –
60 | Nc1nc(=O)n([C@H]2C[C@H](O)[C@@H](CO)O2)cc1CO [5-Hydroxymethyl-2’-deoxycytidine] | -0.8 | –
61 | CC[C@H](CC[C@@H](C)[C@H]1CC[C@H]2[C@@H]3CC=C4C[C@@H](O[C@@H]5O[C@H](CO)[C@@H](O)[C@H](O)[C@H]5O)CC[C@]4(C)[C@H]3CC[C@]12C)C(C)C [Daucosterol] | -0.3 | –
